First the molecules themselves.
B1: light chain library clone L129 (Fab, V domains shown)
VH: QVQLQESGPGLVKPSETLSLTCTVSGFSLIGYDINWIRQPPGKGLEWIGMIWGDGTTDYNSALKSRVTISKDTSKNQFSLKLSSVTAADTAVYYCARGGYYYGTSYYFDYWGQGTLVTVS
VL: DIQMTQSPSSLSASVGDRVTITCRASQSISNNLNWYQQKPGKAPKLLIYYTSRFHSGVPSRFSGSGSGTDFTFTISSLQPEDIATYYCQQSKTLPYTFGQGTKLEIKR
B2: light chain library clone L6 (Fab, V domains shown)
VH: B1 VH
VL: B1 VL with S26F, N32Q, T51A
B3: light chain library clone L97 (Fab, V domains shown)
VH: B1 VH
VL: B1 VL with N32Q, T51V
B4: light chain library clone L208 (Fab, V domains shown)
VH: B1 VH
VL: B1 VL with S28Y, N32H
B5: light chain library clone L81 (Fab, V domains shown)
VH: B1 VH
VL: B1 VL with S26F, S28A, N32Q, S56T
notes: Substitutions derived by comparing printed CDRs with the 8L2-6D5 control

Sequences of proteins named here, by UniProt entry; tags and fusion partners are left off. Residues count along the entry.
UniProt P01138, residues 122-241: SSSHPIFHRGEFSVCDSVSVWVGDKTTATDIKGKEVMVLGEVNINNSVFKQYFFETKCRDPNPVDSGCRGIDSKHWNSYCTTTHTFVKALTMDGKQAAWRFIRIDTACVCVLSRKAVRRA

Changes are numbered by the printed parent chain. No constants are given. Whether binding was seen depends on the method and setting. Some entries that bind do so weakly or less than the wild type.

The values that follow come from patent US20100111970A1 (published 2010).

This test deals with T1, human nerve growth factor (NGF) (human, UniProt P01138 122-241).
T1 construct: Immobilized on CM5 chip in BIAcore assays; also called human NGF; hNGF
The experiment in a line: BIAcore SPR affinity screening of L1/L2 library on human NGF.
Consider B1, for which the binding entry is reported as “binds”.

In the case of B2, the binding result is given as “binds”.

Turning to B3, the binding result was “binds”.

For the molecule B4, the binding result was “binds”.

Turning to B5, the binding entry is reported as “binds”.
